Measured values from PubChem BioAssay AID504327 (National Center for Advancing Translational Sciences (NCATS), 2011).
The campaign covered roughly 390,000 compounds. About 820 (0.21%) were called active. The inconclusive results got no clear call from the source; some entries with a clear call stand among them for comparison. Calls come from the whole dose curve; as a rule, active = well fitted inhibition curve with a large enough effect; inconclusive = small, poorly fitted or top-dose-only effect, or another doubt; inactive = no such curve, though single readings can be large or run the other way. A potency beside an inconclusive call is a rough fit, not a confirmed value.
Potency is the fitted concentration of half-maximal effect.

By UniProt entry, the sequences of proteins in these tests, tags left out.
UniProt Q92830, whole entry, looked up: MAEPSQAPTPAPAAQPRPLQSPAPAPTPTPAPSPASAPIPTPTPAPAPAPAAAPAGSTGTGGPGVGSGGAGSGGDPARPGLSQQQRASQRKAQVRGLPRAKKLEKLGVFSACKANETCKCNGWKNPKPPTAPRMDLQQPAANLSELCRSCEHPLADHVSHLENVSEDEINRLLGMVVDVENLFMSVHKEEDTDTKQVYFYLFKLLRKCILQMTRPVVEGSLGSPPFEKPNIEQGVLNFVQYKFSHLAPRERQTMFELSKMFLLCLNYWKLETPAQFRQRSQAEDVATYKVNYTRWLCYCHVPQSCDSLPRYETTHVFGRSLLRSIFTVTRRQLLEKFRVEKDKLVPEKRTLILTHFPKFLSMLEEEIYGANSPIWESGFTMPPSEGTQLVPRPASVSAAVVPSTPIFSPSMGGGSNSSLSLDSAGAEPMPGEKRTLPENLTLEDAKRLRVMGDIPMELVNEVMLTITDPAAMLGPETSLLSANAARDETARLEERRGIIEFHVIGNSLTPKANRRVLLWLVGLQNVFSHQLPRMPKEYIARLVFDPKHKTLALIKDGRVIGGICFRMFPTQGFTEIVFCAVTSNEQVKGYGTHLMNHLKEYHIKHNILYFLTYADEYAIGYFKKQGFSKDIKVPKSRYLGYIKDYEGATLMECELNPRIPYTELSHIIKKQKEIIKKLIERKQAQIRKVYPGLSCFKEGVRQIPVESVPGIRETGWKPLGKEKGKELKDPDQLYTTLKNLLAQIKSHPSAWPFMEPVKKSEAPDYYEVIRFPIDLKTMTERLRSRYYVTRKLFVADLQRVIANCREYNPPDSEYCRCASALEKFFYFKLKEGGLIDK

These compounds were tested against Histone acetyltransferase KAT2A (Homo sapiens) (UniProt Q92830) (assay: qHTS Assay for Inhibitors of GCN5L2). Details: GCN5L2 HAT assay, ThioGlo1 CoA-SH fluorescence; series mostly up to 58.9 µM.
How it was run: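 Compounds, pin-transferred from DMSO stocks, meet 20nM GCN5L2 for 15 min before the reaction begins with H3(1-25) peptide (75uM) and acetyl-CoA (70uM). Thiol-reactive ThioGlo1 reports CoA release over 20 min at room temperature.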
For Cn1c(=O)c2c([nH]c(=S)n2Cc2ccc(Cl)cc2)n(C)c1=O, the Potency was inconclusive: 3.98 µM [inhibitor, full curve, poor fit].
In the case of CCn1nc(C)c(CNC(=O)c2cc(COc3ccc(C)nc3)on2)c1C, the Potency was inconclusive: 39.8 µM [inhibitor, single point].
With O=C(NCc1nc2ccccc2[nH]1)c1cccc(Cl)c1 the Potency was “inactive”.
In the case of C[C@]12CCC(=O)C=C1CC[C@@H]1[C@@H]2[C@@H](O)C[C@]2(C=O)[C@@H](C(=O)CO)CC[C@@H]12, the Potency was “inactive”.
With Cc1ccc(C)c(NC(=O)c2cc(S(=O)(=O)NCCc3ccccc3)ccc2F)c1 the Potency was “inactive”.
Cc1cccc(NC(=O)CSc2nc3ccccc3nc2N2CCCCC2)c1 was tested, and the Potency was inconclusive: 35.5 µM [inhibitor, single point].
With Cc1ccccc1N1CCN(C2CCCN(C(=O)c3csc(C(C)C)n3)C2)CC1 (centres undefined) the Potency was inconclusive: 39.8 µM [inhibitor, partial curve, poor fit].
In the case of O=C(Cc1ccc(NC(=O)N2CCCCc3ccccc32)cc1)NCc1ccccc1Br, the Potency was “inactive”.
O=c1[nH]c2cc3c(cc2cc1C(c1nnnn1Cc1ccccc1)N1CCN2CCCC2C1)OCCO3 (centres undefined) was tested, and the Potency was inconclusive: 39.8 µM [inhibitor, single point].
With O=C(N/C=C/c1ccco1)NCc1ccccc1 the Potency was inconclusive: 39.8 µM [inhibitor, single point].
With OCc1ccccc1OCCCN1CCC(Cc2ccccc2)CC1 the Potency was “inactive”.
With O=C(c1ccccc1-c1ncc[nH]1)N1CCCC(Nc2ccc(F)cc2)C1 (centres undefined) the Potency was inconclusive: 12.6 µM [inhibitor, partial curve].
In the case of CCOc1ccc(NC(=O)c2ccc3c(SCC(=O)O)c4c(nc3c2)CCC4)cc1, the Potency was “inactive”.
With CC1(C)Cc2[nH]c(=S)c(C#N)cc2CO1 the Potency was inconclusive: 28.2 µM [inhibitor, single point].
With COc1ccc(Cl)cc1NC(=O)Cn1c(=O)n(Cc2nc(C)no2)c(=O)c2ccccc21 the Potency was “inactive”.
With O=C(Nc1ccccc1C(=O)OCc1cc(=O)n2c3c(sc2n1)CCCC3)c1ccccc1 the Potency was “inactive”.
In the case of CCOC(=O)CCSc1n[nH]c(=S)s1, the Potency was inconclusive: 35.5 µM [inhibitor, single point].
In the case of O=S(=O)(Nc1ccc(Br)cc1)N1CCOCC1, the Potency was inconclusive: 5.01 µM [inhibitor, full curve, poor fit].
Cc1ccc(N(CC(=O)NC2CCCCC2)C(=O)c2ccc(C)s2)cc1 was tested, and the Potency was active: 3.98 µM.
CCOC(=O)c1ccc(NC(=O)c2nc[nH]c2C(=O)NCCCCCNC(=O)OC(C)(C)C)cc1 was tested, and the Potency was “inactive”.
For Cc1ccc(C)c(CSC2=NC(C)(C)Nc3ccccc32)c1, the Potency was inconclusive: 22.4 µM [inhibitor, single point].
For CCCn1c(SCC(=O)N2c3ccccc3CCc3ccccc32)nc2c1c(=O)n(C)c(=O)n2C, the Potency was inconclusive: 0.562 µM [inhibitor, partial curve, poor fit].
In the case of COCCNC(=S)NN(c1ccccc1)c1ccccc1, the Potency was “inactive”.
COc1cc2ncnc(Nc3cccc(Cl)c3)c2cc1OC was tested, and the Potency was inconclusive: 35.5 µM [inhibitor, single point].
With Cc1cc(C)cc(CC2CC(=O)N(c3cc(C)ccc3C)C2=O)c1 (centres undefined) the Potency was inconclusive: 39.8 µM [inhibitor, single point].
With COc1ccc(C(=O)/C=C/c2cccc(OCc3ccccc3)c2)cc1CSCC(=O)O the Potency was inconclusive: 31.6 µM [inhibitor, single point].
In the case of O=C(O)c1ccc(/C=C(\c2nc3ccccc3[nH]2)c2nc3ccccc3s2)cc1, the Potency was inconclusive: 39.8 µM [inhibitor, single point].
For c1ccc(Cn2nnc(CNc3ccccc3)c2-c2c(CNc3ccccc3)nnn2Cc2ccccc2)cc1, the Potency was inconclusive: 15.8 µM [inhibitor, partial curve].
COc1ccc2nc(NC(=O)CN3C(=O)NC4(CCCCC4)C3=O)sc2c1 was tested, and the Potency was inconclusive: 39.8 µM [inhibitor, partial curve].
In the case of CCOC(=O)c1ccc2c(c1)C1C=CCC1C(C(=O)OCC)N2 (centres undefined), the Potency was “inactive”.
For O=C(Nc1ccc(Cl)cc1)c1cccc(NC2=NC3CS(=O)(=O)CC3S2)c1 (centres undefined), the Potency was inconclusive: 39.8 µM [inhibitor, single point].
For COc1ccc(CCNC(=O)COC(=O)c2cc(S(=O)(=O)NCc3ccccc3)ccc2O)cc1OC, the Potency was inconclusive: 39.8 µM [inhibitor, single point].
In the case of COc1cccc(NC(=O)C2CCN(S(=O)(=O)c3ccc4c(c3)CC(C)N4C(C)=O)CC2)c1 (centres undefined), the Potency was “inactive”.
O=P(c1ccccc1)(c1ccccc1)c1nc(-c2ccc(Cl)cc2)oc1N1CCOCC1 was tested, and the Potency was “inactive”.
For Cc1cc(/C=C\c2ccccc2)nc2ccccc12, the Potency was “inactive”.
With Cc1cc(C(=O)N/N=C/c2ccc(-c3cccc(Br)c3)o2)n[nH]1 the Potency was inconclusive: 8.91 µM [inhibitor, single point].
For Cc1ccccc1NC(=S)NC(=O)c1cc(-c2ccccc2)nc2ccccc12, the Potency was “inactive”.
For O=c1c(-c2cccs2)nc2cnc(N3CCNCC3)nc2n1CCc1ccccc1, the Potency was inconclusive: 17.8 µM [inhibitor, partial curve].
In the case of O=Cc1ccc(-c2cccc([N+](=O)[O-])c2)o1, the Potency was “inactive”.
Oc1ccc(/C=C/c2nc(-c3ccccc3O)n(-c3ccccc3)n2)c(O)c1 was tested, and the Potency was “inactive”.
In the case of COc1cc(/C=C2\SC(=Nc3ccccc3)N(CCc3c[nH]c4ccccc34)C2=O)ccc1OC(C)C(=O)O (centres undefined), the Potency was inconclusive: 35.5 µM [inhibitor, single point].
In the case of CC1CCC(NC(=O)C2CCC(CNS(=O)(=O)c3ccccc3)CC2)CC1 (centres undefined), the Potency was inconclusive: 3.55 µM [inhibitor, single point].
With CCN(CC(=O)Nc1ccc(NC(C)=O)cc1)C(=O)c1ccccc1CCc1ccccc1 the Potency was inconclusive: 0.794 µM [inhibitor, single point].
C[C@@H](C(=O)O)c1ccc(C(=O)c2ccccc2)s1 was tested, and the Potency was “inactive”.
With CCCc1cc2c(-c3ccccc3)cc(=O)oc2cc1OCc1ccc(C(=O)O)o1 the Potency was inconclusive: 39.8 µM [inhibitor, single point].
In the case of COc1ccc(/C(C)=N/Nc2ccccc2Cl)c(O)c1, the Potency was inconclusive: 25.1 µM [inhibitor, single point].
O=C(/C(=N\O)n1cncn1)c1ccc(Cl)cc1Cl was tested, and the Potency was “inactive”.
With COc1ccc(CCN2CC(C(=O)NCCN3CCOC3=O)CCC2=O)cc1 (centres undefined) the Potency was inconclusive: 44.7 µM [inhibitor, single point].
In the case of CC(C)C(NC(=O)c1cccs1)C(=O)NC1CCCCC1 (centres undefined), the Potency was inconclusive: 8.91 µM [inhibitor, single point].
Cc1ccc(Cn2c(=O)n(Cc3ccccc3Cl)c(=O)c3ccccc32)cc1 was tested, and the Potency was “inactive”.
In the case of O=C(NCc1ccccc1)N1CCC(Cc2ccccc2)CC1, the Potency was inconclusive: 28.2 µM [inhibitor, single point].
For COc1ccc(CNC(=O)Cc2csc3nc(-c4ccc(C)cc4)cn23)cc1, the Potency was inconclusive: 0.447 µM [inhibitor, partial curve, poor fit].
For COc1cccc(NS(=O)(=O)c2ccc3c(c2)n(C)c(=O)c(=O)n3C)c1, the Potency was “inactive”.
For Cn1c(N2CCN(C(c3ccccc3)c3ccccc3)CC2)nc2ccccc21, the Potency was inconclusive: 39.8 µM [inhibitor, single point].
In the case of COc1ccc(S(=O)(=O)CC(O)CN2CCCC2=O)cc1 (centres undefined), the Potency was inconclusive: 0.316 µM [inhibitor, partial curve, poor fit].
For COc1ccc(C2CC(=O)C3=C(C2)Nc2ccccc2N(C(=O)CCC(=O)O)C3c2ccc(F)cc2)cc1 (centres undefined), the Potency was inconclusive: 22.4 µM [inhibitor, partial curve].
In the case of CN(C(=O)COC(=O)c1ccc(C(C)(C)C)cc1)C1CCS(=O)(=O)C1 (centres undefined), the Potency was “inactive”.
Cc1c(O)cc2c(c1O)C(=O)CC(c1ccccc1)O2 (centres undefined) was tested, and the Potency was inconclusive: 17.8 µM [inhibitor, partial curve].
With CCCCn1nc2cc(C(=O)NCc3ccc(C(F)(F)F)cc3C(F)(F)F)ccc2c1OCC the Potency was inconclusive: 20 µM [inhibitor, partial curve, poor fit].
For CCCCCC(O)c1cccc(OCc2ccc3ccccc3n2)c1 (centres undefined), the Potency was inconclusive: 28.2 µM [inhibitor, single point].
With CCOc1ccc(C(C)=O)cc1CN1C(=O)NC2(CCCCCC2)C1=O the Potency was inconclusive: 39.8 µM [inhibitor, single point].
In the case of O=c1c(-c2ccccc2)nc2cnc(N3CCOCC3)nc2n1-c1ccccc1, the Potency was inconclusive: 12.6 µM [inhibitor, partial curve, poor fit].
With O=C(Nc1nccs1)C1CCN(S(=O)(=O)c2ccc(Cl)c(C(F)(F)F)c2)CC1 the Potency was inconclusive: 3.16 µM [inhibitor, partial curve, poor fit].
In the case of COc1cc(C2Nc3cccc4cccc(c34)N2)cc(OC)c1OC(C)=O, the Potency was inconclusive: 3.55 µM [inhibitor, full curve, poor fit].
In the case of c1ccc2c(c1)nnn2-c1ncnc2sc3c(c12)CCCC3, the Potency was inconclusive: 1 µM [inhibitor, full curve, poor fit].
With Cc1ccc(-c2nc3cc(Br)cnc3nc2-c2ccc(C)cc2)cc1 the Potency was “inactive”.
For Cc1ccc(Cl)cc1N1CCN(C(=O)Cc2c(C(=O)O)[nH]c3ccc(Cl)cc23)CC1, the Potency was inconclusive: 44.7 µM [inhibitor, single point].
With CCN(C(=O)COC(=O)/C=C/c1ccc(C)o1)c1c(N)n(Cc2ccccc2)c(=O)[nH]c1=O the Potency was “inactive”.
